These are yes or no findings as the source states them, for the method shown. Binding seen in cells or lysates may run through a third protein. A result given as binding can be weak or reduced; the word gives no strength. Tags and fused reporters may be left off the sequences shown.
B1: 6×His-AvrAC (protein, UniProt Q4UWF4 1-536)
chain: MDKNLNLWDMSTFIQQYGALTADHPTHTPEDSPQTVPSPRSSSAHSPEIQELRSLQETRPARLGARSQSRSSKHGLQQCSSSPSDESFRLHAELAAWCERVETKPSLLAKLGCCAAPPVVGDHREQRREAMERIMRCLDAGQAGTQLTLRDLNLSQLPPGLHRLAHLRDLDVADNVNLTRLPEDLSLCKHLERINADGCSIAALPSKIGALKNLSEISLAFNELRTLPDSIGQCSSLTTIVVPGCKINKLPASLANLTQLKKLDVAANIELSELSPHMNLDDVAVHSTQTRLGLMHRIFKAPTFDPETRQRLSYQASALRDRWAALSHHLSPQARARVDQMREGASTTLSSQDHKASTAWKTATEKVSSWAEEGAPITLDRIFKLNQLLLPEGDDDNDPIGGQLRKVGIQAAPSNTWTECRYPPPETLKDEMAKFSGWLEHSEQQAHARDALGHIEFAAQLHQRLVSLHPFDDANGRTARLAMDWALQRHGLPPAPPVGEASRLPASFLGGKRVSPEKVVLETLEGIATVMNQVHQ

Experiments:
[1] = target: T1, GST-HpaB_(111-160) (Xanthomonas campestris pv. campestris) (UniProt B0RX82); assay: pull-down; GST or GST-fused HpaB derivatives from soluble E. coli lysate immobilised on MagneGST particles; incubated with E. coli lysates of 6×His-tagged prey 30 min at room temperature or overnight at 4°C; 20 mM Tris, 150 mM NaCl, 0.05% Triton-100, pH 8.0; immunoblot with anti-His and anti-GST; only the target purified
T1 sequence: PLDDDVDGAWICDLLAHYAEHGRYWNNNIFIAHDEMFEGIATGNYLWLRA

[2] = target: T2, GST-HpaB_(137-160) (Xanthomonas campestris pv. campestris) (UniProt B0RX82); assay: as above
T2 sequence: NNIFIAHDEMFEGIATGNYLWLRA

[3] = target: T3, GST-HpaB_(85-160) (Xanthomonas campestris pv. campestris) (UniProt B0RX82); assay: as above
T3 sequence: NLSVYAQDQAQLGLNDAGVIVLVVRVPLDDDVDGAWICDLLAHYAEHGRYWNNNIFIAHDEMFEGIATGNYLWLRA

[4] = target: GST-HpaB (Xanthomonas campestris pv. campestris); assay: pull-down; chaperone release assay: GST-fused HpaB derivatives immobilised on MagneGST particles, incubated with 6×His-tagged T3E to form the complex, unbound protein removed; then 1 h at room temperature with 150 μM ATP, with or without 1 μg purified 6×His-HrcN; supernatant and particles immunoblotted

Row | Molecule | binding [1] | binding [2] | binding [3] | binding [4]
1 | Trx-6×His-HpaB (Xanthomonas campestris pv. campestris) | binds | no binding | binds | 
2 | 6×His-HpaA (Xanthomonas campestris pv. campestris) | binds | binds weakly | binds | 
3 | 6×His-HpaB_(1-144) (Xanthomonas campestris pv. campestris) (domain or fragment) | binds | no binding | binds | 
4 | 6×His-AvrBs1 (Xanthomonas campestris pv. campestris) | binds | no binding | binds | 
5 | B1 |  |  |  | binds
